Data source: PubChem BioAssay AID1671195 (Yale University, 2021)

- Screen: 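Knockdowns that increase or decrease uptake of fluorescent LDL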 (primary screen)
- Cell system: human Huh7 hepatoma cells
- Knock-down reagent: siRNA pool against human genes, 18 nM
- Time to read-out: about 2 to 2.5 days of knockdown, then 8 h LDL uptake
- Treatment: DiI-labelled LDL at 30 µg/ml for 8 h, in lipoprotein-deficient serum medium
- Measurement: 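Per-cell DiI-LDL intensity by automated imaging; well means scaled to the plate median and given as a robust z-score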
- Direction: robust z-score: higher = more LDL uptake after knockdown
- Active means: 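Active when two or more replicates show a robust z-score above 2 or below -2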
The deposit covers about 22,000 reagents; this is a random part of them. About 1,510 of all reagents (6.9%) were called active. 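Active includes knockdowns raising or lowering LDL uptake; positive z-scores mean more uptake, negative mean less.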 Entries without a mark were called inactive. The numbers tell different reagents against one gene apart.

gene | reagent no. | robust z-score, replicate 1 | robust z-score, replicate 2 | robust z-score, replicate 3
SLC16A12 | 1 | -0.154 | 0.349 | 0.681
WWC1 (WW and C2 domain containing 1) | 1 | 1.65 | -0.246 | 1.15
NAA20 (N-alpha-acetyltransferase 20, NatB catalytic subunit) | 1 | -1.16 | -1.22 | -1.16
LOC389316 (retired record) | 1 | -0.268 | -0.353 | -0.32
LOC158825 (retired record) | 1 | -0.157 | -0.241 | -0.0522
OR2C1 (olfactory receptor family 2 subfamily C member 1) | 1 | 0.511 | 0.225 | 0.529
AAK1 (AP2 associated kinase 1) | 1 | 2.37 | 1.39 | 1.41
AAK1 (AP2 associated kinase 1) | 2 | 0.357 | -0.0825 | 0.0785
CKMT2 (creatine kinase, mitochondrial 2) | 1 | -0.738 | -0.564 | 0.0872
KRT13 (keratin 13) | 1 | -0.754 | -0.39 | -0.407
GDF5 (growth differentiation factor 5) | 1 | -0.608 | 2.41 | 0.848
AVL9 (AVL9 cell migration associated) | 1 | 0.815 | 0.13 | 1.46
ALG13 (ALG13 UDP-N-acetylglucosaminyltransferase subunit) | 1 | 0.591 | 1.15 | 1.16
UBE2Z (ubiquitin conjugating enzyme E2 Z) | 1 | 0.428 | -0.0078 | 0.455
NDST1 (N-deacetylase and N-sulfotransferase 1) | 1 | -1.54 | -1.58 | -1.31
HOXC10 (homeobox C10) | 1 | 0.281 | -0.588 | -0.211
ZNF320 (zinc finger protein 320) | 1 | 0.935 | -0.157 | 0.759
PSME3IP1 (proteasome activator subunit 3 interacting protein 1) | 1 | 0.496 | 0.646 | 0.384
FLAD1 (flavin adenine dinucleotide synthetase 1) | 1 | 1.12 | 0.242 | 1.61
RAD23BP1 (RAD23B pseudogene 1) | 1 | -0.851 | -0.563 | -0.435
CYP1A1 (cytochrome P450 family 1 subfamily A member 1) | 1 | 0.329 | 0.59 | 0.513
COMMD8 (COMM domain containing 8) | 1 | 1.97 (active) | 3.62 | 2.78
CC2D1A (coiled-coil and C2 domain containing 1A) | 1 | 0.9 | 1.96 | -0.66
LOC340518 (retired record) | 1 | 0.584 | 1.13 | 0.665
COL13A1 (collagen type XIII alpha 1 chain) | 1 | 0.139 | 0.0211 | -0.434
KCTD17 (potassium channel tetramerization domain containing 17) | 1 | 0.654 | -0.351 | -0.987
PCDHB1 (protocadherin beta 1) | 1 | -1.26 | -0.93 | -1.13
LAPTM5 (lysosomal protein transmembrane 5) | 1 | -0.979 | -0.919 | -0.996
LOC401280 (retired record) | 1 | -0.345 | -3.06 | -0.699
KIF15 (kinesin family member 15) | 1 | -1.06 | -0.907 | -0.672
SUPT4H1 (SPT4 homolog, DSIF elongation factor subunit) | 1 | -0.627 | -0.77 | -1.4
LOC387903 (retired record) | 1 | -2.09 | -1.8 | -1.79
RCBTB1 (RCC1 and BTB domain containing protein 1) | 1 | 0.292 | 0.203 | -0.0766
LOC201484 (retired record) | 1 | 0.376 | 0.27 | -0.392
MICALL2 (MICAL like 2) | 1 | -1.22 | -0.875 | -0.854
RNASEH2A (ribonuclease H2 subunit A) | 1 | -0.652 | -0.712 | -0.62
TSLIG2 (tRNA splicing ligase complex subunit 2) | 1 | -0.877 | -1.1 | -0.95
MYO1C (myosin IC) | 1 | 0.512 | 1.64 | 0.385
DRC12 (dynein regulatory complex subunit 12 homolog) | 1 | -0.512 | -0.135 | -0.617
NXPE1 (neurexophilin and PC-esterase domain family member 1) | 1 | -1.14 | -1.07 | -1.77
PIP5K1C (phosphatidylinositol-4-phosphate 5-kinase type 1 gamma) | 1 | 0.56 | -0.0776 | 0.00158
PIGT (phosphatidylinositol glycan anchor biosynthesis class T) | 1 | -1.97 | -1.04 | -1.38
LOC389143 (retired record) | 1 | 1.03 | 0.439 | 0.879
GNL2 (G protein nucleolar 2) | 1 | 1.72 | -1.04 | -0.191
GDF2 (growth differentiation factor 2) | 1 | 0.921 | 1.57 | 2.38
VDR (vitamin D receptor) | 1 | 0.471 | -0.567 | -0.536
ALAS1 (5'-aminolevulinate synthase 1) | 1 | -0.407 | -0.116 | -0.44
STPG3 (sperm-tail PG-rich repeat containing 3) | 1 | -0.0163 | 0.307 | 0.514
BOD1 (biorientation of chromosomes in cell division 1) | 1 | -0.839 | -0.783 | -0.354
ATF7IP2 (activating transcription factor 7 interacting protein 2) | 1 | 2.39 (active) | 2.92 | 2.17
NAGPA | 1 | -0.885 | 1.19 | -0.34
SLC17A2 | 1 | -0.331 | 0.322 | -0.0581
TJAP1P1 (TJAP1 pseudogene 1) | 1 | 0.714 (active) | 2.37 | 2.34
MSANTD2 (Myb/SANT DNA binding domain containing 2) | 1 | -0.101 | -0.0384 | -0.0254
C2orf66 (chromosome 2 open reading frame 66) | 1 | 0.467 | 0.664 | 0.369
LYL1 (LYL1 basic helix-loop-helix family member) | 1 | -1.48 | -1.7 | -1.9
LIF (LIF interleukin 6 family cytokine) | 1 | -0.607 | -0.263 | -0.278
ANKRD19P (ankyrin repeat domain 19, pseudogene) | 1 | 0.157 | 0.0244 | 0.634
MRPL18 (mitochondrial ribosomal protein L18) | 1 | -0.101 | 0.552 | 1.68
COLEC12 (collectin subfamily member 12) | 1 | 1.94 (active) | 2.57 | 2.7
OCRL (OCRL inositol polyphosphate-5-phosphatase) | 1 | -0.779 | -0.0127 | -0.327
MTF2 (metal response element binding transcription factor 2) | 1 | -0.546 | -0.706 | -0.856
MUSK (muscle associated receptor tyrosine kinase) | 1 | -0.211 | -0.738 | -0.597
JCHAIN (joining chain of multimeric IgA and IgM) | 1 | 0.15 | 1.06 | 0.634
SETD1B (SET domain containing 1B, histone lysine methyltransferase) | 1 | -0.967 | -1.21 | -0.617
KCTD6 (potassium channel tetramerization domain containing 6) | 1 | 1.22 | 1.04 | 0.357
LOC387717 (retired record) | 1 | -0.682 | -0.527 | -0.585
TTLL13 (tubulin tyrosine ligase like 13) | 1 | 0.591 | 0.0889 | 0.331
PLK2 (polo like kinase 2) | 1 | 0.908 | 1.29 | 0.298
SLC12A8 | 1 | 0.738 | 0.123 | 0.845
TENT2 (terminal nucleotidyltransferase 2) | 1 | -0.512 | 0.329 | 0.699
LOC441006 (retired record) | 1 | -0.161 | -0.53 | -0.78
ATIC | 1 | 0.619 | 1.44 | 0.623
FBXW2 (F-box and WD repeat domain containing 2) | 1 | 1.26 | -0.554 | 0.885
MOK (MOK protein kinase) | 1 | 0.239 | 0.693 | 0.164
PAX4 (paired box 4) | 1 | -1.37 | -1.38 | -0.887
LEPR (leptin receptor) | 1 | -0.988 | -0.742 | -0.586
LOC440467 (retired record) | 1 | -1.12 | -1.24 | -1.48
EXTL1 (exostosin like glycosyltransferase 1) | 1 | -0.0822 | -0.0451 | 1.09
TUBA1A (tubulin alpha 1a) | 1 | -0.519 | -0.208 | -0.298
SLC6A2 | 1 | 1.09 | 1.35 | 0.715
NEB (nebulin) | 1 | 0.267 | -0.273 | 0.121
LOC389069 (retired record) | 1 | -1.37 | -1.56 | -1.75
LOC200226 (retired record) | 1 | -0.0894 | 0.473 | 0.46
LOC440772 (retired record) | 1 | -0.164 | 0.442 | 0.482
TSPAN14 (tetraspanin 14) | 1 | -1.35 | -0.574 | -1.03
MUC1 (mucin 1, cell surface associated) | 1 | -1.29 | -1.16 | -1.66

A few values from above:
CYP1A1 (cytochrome P450 family 1 subfamily A member 1), robust z-score, replicate 2 = 0.59
Entry of PSME3IP1 (proteasome activator subunit 3 interacting protein 1) in “robust z-score, replicate 3”: 0.384
LIF (LIF interleukin 6 family cytokine), robust z-score, replicate 1 → -0.607
For “robust z-score, replicate 3”, NEB (nebulin) shows 0.121
Under “robust z-score, replicate 2”, JCHAIN (joining chain of multimeric IgA and IgM) has 1.06
Entry for PCDHB1 (protocadherin beta 1) under “robust z-score, replicate 3”: -1.13
